± gives the standard deviation of the averaged measurements. Only a part is listed here, and it is no random draw. Small differences around the control level are noise.

Amino acid sequences for entries named in this document (tags omitted). A change or cut given only in a name is not applied to a line headed by its entry.
UniProt Q8NDX5: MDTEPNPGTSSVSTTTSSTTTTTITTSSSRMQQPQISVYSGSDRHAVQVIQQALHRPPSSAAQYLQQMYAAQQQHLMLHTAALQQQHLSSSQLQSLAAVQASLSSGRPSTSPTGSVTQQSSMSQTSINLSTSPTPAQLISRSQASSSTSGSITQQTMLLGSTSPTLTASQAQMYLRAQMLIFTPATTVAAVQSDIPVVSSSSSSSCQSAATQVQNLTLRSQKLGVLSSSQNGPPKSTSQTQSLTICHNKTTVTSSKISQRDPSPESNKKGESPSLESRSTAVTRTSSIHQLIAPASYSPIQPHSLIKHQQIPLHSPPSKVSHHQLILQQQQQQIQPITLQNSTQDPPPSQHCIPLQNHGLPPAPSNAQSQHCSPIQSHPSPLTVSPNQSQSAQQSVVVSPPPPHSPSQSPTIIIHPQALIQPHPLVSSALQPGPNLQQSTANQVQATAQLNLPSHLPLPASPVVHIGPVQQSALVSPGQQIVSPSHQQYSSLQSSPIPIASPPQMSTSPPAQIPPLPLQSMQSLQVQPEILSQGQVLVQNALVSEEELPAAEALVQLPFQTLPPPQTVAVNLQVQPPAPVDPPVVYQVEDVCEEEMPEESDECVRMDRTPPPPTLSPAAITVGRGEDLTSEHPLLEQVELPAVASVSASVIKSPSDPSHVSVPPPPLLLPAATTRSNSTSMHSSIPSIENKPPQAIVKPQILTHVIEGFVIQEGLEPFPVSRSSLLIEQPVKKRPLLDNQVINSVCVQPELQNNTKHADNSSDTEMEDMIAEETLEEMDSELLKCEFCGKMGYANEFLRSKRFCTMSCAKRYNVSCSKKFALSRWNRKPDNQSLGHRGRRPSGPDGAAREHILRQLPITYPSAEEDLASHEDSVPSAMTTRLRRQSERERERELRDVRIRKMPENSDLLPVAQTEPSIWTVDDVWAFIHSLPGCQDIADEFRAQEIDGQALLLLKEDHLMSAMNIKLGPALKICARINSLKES
UniProt Q8IXT5: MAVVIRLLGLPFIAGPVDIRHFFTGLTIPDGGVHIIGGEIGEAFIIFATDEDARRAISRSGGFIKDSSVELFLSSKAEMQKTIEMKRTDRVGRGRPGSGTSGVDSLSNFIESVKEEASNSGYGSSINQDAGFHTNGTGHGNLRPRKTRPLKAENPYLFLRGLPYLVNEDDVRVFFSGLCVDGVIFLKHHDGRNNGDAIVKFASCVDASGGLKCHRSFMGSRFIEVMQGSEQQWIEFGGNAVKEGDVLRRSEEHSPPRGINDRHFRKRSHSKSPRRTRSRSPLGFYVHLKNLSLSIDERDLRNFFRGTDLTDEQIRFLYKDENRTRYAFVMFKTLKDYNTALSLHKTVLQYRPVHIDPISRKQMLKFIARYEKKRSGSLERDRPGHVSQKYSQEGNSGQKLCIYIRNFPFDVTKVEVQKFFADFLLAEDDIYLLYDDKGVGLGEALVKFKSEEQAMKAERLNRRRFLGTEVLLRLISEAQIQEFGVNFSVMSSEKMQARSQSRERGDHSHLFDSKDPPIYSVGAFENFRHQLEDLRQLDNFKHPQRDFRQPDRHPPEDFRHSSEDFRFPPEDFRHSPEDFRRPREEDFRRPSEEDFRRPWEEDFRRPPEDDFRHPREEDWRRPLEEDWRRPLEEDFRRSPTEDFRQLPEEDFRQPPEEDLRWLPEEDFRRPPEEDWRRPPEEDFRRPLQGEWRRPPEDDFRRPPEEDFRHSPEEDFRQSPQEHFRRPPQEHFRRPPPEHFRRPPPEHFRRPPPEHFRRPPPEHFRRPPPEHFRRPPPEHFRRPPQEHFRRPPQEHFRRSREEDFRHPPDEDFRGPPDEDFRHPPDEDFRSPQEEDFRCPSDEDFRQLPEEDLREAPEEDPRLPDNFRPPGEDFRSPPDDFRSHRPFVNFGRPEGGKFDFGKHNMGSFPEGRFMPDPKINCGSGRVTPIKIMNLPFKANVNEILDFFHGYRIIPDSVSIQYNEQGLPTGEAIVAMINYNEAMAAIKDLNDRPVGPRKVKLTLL
UniProt Q8IY63: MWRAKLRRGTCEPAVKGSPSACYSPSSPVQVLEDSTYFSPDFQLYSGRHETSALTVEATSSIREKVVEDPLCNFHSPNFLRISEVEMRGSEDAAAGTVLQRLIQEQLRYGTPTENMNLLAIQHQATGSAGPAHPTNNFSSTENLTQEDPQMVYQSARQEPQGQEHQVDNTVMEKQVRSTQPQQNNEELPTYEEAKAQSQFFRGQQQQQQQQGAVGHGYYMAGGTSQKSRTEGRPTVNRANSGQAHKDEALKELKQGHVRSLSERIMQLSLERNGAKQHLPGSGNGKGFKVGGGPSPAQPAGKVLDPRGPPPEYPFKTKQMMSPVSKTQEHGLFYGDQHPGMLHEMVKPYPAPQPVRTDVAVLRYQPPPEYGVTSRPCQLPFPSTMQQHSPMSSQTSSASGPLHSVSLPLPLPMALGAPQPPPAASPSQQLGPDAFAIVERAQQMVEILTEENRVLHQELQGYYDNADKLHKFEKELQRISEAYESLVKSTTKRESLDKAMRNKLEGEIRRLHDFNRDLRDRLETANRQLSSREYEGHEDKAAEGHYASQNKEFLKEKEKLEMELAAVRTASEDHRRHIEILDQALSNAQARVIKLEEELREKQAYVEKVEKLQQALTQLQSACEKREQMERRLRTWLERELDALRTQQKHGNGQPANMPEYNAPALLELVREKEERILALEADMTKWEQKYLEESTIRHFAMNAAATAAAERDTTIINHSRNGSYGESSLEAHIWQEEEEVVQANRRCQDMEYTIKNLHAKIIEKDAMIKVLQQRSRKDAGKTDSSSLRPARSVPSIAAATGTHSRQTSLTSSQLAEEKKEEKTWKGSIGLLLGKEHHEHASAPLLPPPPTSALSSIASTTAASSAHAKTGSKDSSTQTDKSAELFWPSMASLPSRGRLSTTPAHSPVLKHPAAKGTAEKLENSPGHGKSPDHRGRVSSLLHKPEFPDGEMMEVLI
UniProt Q8N0W3: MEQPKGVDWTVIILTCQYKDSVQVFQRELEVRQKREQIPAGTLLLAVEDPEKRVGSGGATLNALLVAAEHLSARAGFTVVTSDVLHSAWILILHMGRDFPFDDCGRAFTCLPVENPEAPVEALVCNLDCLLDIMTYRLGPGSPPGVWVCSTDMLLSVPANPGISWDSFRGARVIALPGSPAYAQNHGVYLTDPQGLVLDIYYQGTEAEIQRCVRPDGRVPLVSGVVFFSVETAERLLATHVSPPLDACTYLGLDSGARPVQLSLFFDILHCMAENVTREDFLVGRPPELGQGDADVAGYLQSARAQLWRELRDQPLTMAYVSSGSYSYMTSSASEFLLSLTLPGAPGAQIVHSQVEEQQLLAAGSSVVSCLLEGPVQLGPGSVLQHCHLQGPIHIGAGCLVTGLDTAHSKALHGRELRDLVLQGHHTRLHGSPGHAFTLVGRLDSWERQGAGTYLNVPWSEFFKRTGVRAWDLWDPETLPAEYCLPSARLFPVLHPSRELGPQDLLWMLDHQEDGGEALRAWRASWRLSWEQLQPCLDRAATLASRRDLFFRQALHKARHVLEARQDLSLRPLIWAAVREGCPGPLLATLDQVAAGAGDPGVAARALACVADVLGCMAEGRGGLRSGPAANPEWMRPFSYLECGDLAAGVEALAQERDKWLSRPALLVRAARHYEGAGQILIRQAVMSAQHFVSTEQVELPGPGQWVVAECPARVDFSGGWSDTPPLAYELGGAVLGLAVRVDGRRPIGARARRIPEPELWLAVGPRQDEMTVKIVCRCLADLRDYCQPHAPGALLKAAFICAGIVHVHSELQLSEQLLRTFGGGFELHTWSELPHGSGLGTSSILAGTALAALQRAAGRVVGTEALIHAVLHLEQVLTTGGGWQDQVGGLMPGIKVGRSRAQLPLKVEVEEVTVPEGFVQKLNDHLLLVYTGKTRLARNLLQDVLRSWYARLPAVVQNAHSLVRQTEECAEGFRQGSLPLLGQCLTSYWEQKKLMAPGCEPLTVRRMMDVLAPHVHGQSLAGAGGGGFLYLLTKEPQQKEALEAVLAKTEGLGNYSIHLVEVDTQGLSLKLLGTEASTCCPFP
UniProt Q8N8R7: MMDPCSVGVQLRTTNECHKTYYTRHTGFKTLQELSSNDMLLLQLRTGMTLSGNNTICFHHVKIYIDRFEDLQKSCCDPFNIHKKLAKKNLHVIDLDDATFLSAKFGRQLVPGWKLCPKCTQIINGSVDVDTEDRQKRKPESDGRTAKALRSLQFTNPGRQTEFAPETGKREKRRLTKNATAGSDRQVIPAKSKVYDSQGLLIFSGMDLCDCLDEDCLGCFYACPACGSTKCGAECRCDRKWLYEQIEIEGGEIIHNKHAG
UniProt Q8IXB1: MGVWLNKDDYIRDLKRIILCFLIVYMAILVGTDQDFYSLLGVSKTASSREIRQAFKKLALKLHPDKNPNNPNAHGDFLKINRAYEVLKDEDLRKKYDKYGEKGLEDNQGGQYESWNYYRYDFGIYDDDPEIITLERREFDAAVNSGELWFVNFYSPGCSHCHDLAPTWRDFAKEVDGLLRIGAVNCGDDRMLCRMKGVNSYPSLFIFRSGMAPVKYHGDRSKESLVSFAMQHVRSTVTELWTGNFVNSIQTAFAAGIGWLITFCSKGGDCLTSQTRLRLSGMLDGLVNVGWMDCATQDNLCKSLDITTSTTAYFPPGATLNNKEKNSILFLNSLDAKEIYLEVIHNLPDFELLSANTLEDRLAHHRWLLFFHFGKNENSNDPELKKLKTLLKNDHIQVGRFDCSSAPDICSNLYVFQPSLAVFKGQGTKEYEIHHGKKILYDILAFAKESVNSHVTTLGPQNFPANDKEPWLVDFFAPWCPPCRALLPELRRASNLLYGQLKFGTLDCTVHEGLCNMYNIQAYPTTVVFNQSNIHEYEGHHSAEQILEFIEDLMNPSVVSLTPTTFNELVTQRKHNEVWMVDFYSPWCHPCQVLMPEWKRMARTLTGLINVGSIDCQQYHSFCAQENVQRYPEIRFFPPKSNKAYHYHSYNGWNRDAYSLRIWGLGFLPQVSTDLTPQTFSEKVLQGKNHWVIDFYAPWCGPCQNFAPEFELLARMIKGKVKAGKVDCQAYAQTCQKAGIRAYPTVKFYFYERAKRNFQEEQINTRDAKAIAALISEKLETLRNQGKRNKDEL
UniProt Q8NBS9: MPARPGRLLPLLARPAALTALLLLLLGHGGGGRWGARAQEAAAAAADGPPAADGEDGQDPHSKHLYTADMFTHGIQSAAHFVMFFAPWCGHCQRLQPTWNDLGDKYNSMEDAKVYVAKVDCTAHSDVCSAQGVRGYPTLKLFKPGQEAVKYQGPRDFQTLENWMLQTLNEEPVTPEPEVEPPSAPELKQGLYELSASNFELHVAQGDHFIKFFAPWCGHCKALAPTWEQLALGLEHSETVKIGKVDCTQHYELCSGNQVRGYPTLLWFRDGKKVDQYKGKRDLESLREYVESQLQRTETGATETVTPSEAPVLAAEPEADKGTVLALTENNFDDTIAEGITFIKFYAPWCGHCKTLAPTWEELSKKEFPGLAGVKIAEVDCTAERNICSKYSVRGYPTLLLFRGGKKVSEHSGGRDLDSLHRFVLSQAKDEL
UniProt Q8N371: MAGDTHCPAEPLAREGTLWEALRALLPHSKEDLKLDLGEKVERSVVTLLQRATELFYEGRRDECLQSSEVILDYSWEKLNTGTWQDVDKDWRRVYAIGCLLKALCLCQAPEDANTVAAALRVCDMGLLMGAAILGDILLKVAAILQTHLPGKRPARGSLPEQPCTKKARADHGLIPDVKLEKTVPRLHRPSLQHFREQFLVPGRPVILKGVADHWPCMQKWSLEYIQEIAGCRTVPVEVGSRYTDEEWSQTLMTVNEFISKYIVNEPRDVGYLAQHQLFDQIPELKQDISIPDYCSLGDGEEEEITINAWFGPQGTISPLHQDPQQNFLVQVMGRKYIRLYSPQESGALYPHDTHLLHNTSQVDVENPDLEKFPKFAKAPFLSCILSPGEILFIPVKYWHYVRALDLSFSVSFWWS
UniProt Q8IVB5: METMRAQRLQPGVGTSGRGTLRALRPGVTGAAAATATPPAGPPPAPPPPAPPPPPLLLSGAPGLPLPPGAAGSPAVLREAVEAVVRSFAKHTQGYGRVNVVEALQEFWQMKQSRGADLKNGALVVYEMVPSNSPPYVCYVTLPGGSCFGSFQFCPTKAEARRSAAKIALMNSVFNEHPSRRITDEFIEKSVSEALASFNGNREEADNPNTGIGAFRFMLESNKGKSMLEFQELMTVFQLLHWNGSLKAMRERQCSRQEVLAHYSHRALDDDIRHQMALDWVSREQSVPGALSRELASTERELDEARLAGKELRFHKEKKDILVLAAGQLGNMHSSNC
UniProt Q8NFH4: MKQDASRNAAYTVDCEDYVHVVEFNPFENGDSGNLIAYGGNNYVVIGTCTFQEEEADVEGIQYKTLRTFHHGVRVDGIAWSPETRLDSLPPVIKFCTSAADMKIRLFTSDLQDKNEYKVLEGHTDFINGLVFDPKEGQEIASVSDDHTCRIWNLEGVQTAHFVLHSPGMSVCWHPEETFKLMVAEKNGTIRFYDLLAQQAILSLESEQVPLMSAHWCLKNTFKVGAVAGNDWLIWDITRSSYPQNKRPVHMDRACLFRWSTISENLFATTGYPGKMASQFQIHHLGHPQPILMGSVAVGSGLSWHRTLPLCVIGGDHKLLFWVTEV

Compound in the experiment: Nc1ncnc2c1ncn2[C@@H]1O[C@H](COP(=O)(O)OP(=O)(O)OP(=O)(O)O)[C@@H](O)[C@H]1O [adenosine triphosphate]
As to the kind of experiment: NP40-soluble protein abundance relative to vehicle (solubility fold change) (ratio); higher = more soluble protein in presence of ATP. The essentials: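 Values are fold changes against the detergent-processed vehicle, based on vsn-normalised intensities. Jurkat crude lysate was treated at eight concentrations from 0.1 to 10 mM (10 min at room temperature, then 3 min at 37 °C), solubilised with 0.8% NP40 and benzonase, ultracentrifuged and analysed by TMT-labelled LC-MS/MS over three independent experiments.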

Turning to SPATA5 (UniProt Q8NB90), the NP40-soluble protein abundance (concentration: 0.1mM) was found to be 1.11 ± 0.043 and the NP40-soluble protein abundance (concentration: 0.5mM) was 1.35 ± 0.058.

As for UniProt Q8NDX5 and related entries, the NP40-soluble protein abundance came to 0.972 ± 0.035 (concentration: 0.1mM) and 1.04 ± 0.1 (concentration: 0.5mM).

Regarding RBM12B (UniProt Q8IXT5), the NP40-soluble protein abundance turned out to be 0.994 ± 0.063 (concentration: 0.1mM) and 1.01 ± 0.031 (concentration: 0.5mM).

Regarding UniProt Q8IWS0 and related entries, the NP40-soluble protein abundance runs as follows: (concentration: 0.1mM) 1.04 ± 0.053; (concentration: 0.5mM) 1.05 ± 0.021.

As to UniProt Q8N5Z0 and related entries, the NP40-soluble protein abundance is, setting by setting: (concentration: 0.1mM) 1.15 ± 0.25; (concentration: 0.5mM) 1.03 ± 0.078.

For NFATC2IP (UniProt Q8NCF5), the NP40-soluble protein abundance is, setting by setting: (concentration: 0.1mM) 1.18 ± 0.29; (concentration: 0.5mM) 0.904 ± 0.051.

In the case of UniProt Q8IY63 and related entries, the NP40-soluble protein abundance (concentration: 0.1mM) was determined as 0.909 ± 0.035 and the NP40-soluble protein abundance (concentration: 0.5mM) came out at 0.95 ± 0.03.

In the case of UniProt Q8IXI2-2|Q8IXI2-3, the NP40-soluble protein abundance is 1.044 ± 0.0017 (concentration: 0.1mM) and 1.004 ± 0.0017 (concentration: 0.5mM).

On to UniProt Q8N4J0, for which the NP40-soluble protein abundance came to 1.06 ± 0.13 (concentration: 0.1mM) and 1.02 ± 0.084 (concentration: 0.5mM).

On to PTGR2 (UniProt Q8N8N7), for which the NP40-soluble protein abundance turned out to be 1 ± 0.038 (concentration: 0.1mM) and 1.02 ± 0.014 (concentration: 0.5mM).

Take UniProt Q8IYB5-2|Q8IYB5-3|Q8IYB5: the NP40-soluble protein abundance runs as follows: (concentration: 0.1mM) 1.01 ± 0.054; (concentration: 0.5mM) 1.04 ± 0.095.

As to UniProt Q8IYS2 and related entries, the NP40-soluble protein abundance came out at 1.07 ± 0.093 (concentration: 0.1mM) and 1.07 ± 0.076 (concentration: 0.5mM).

Take MICALL1 (UniProt Q8N3F8): the NP40-soluble protein abundance by setting is: (concentration: 0.1mM) 0.966 ± 0.017; (concentration: 0.5mM) 0.961 ± 0.038.

For UniProt Q8N0X7, the NP40-soluble protein abundance (concentration: 0.1mM) came out at 1.02 ± 0.026 and the NP40-soluble protein abundance (concentration: 0.5mM) worked out at 1.01 ± 0.033.

In the case of UniProt Q8N0W3 and related entries, the NP40-soluble protein abundance (concentration: 0.1mM) worked out at 1.03 ± 0.029 and the NP40-soluble protein abundance (concentration: 0.5mM) was 0.936 ± 0.074.

On to UniProt Q8N8R7, for which the NP40-soluble protein abundance by setting is: (concentration: 0.1mM) 0.965 ± 0.079; (concentration: 0.5mM) 0.968 ± 0.048.

Regarding CEP76 (UniProt Q8TAP6), the NP40-soluble protein abundance turned out to be 1.01 ± 0.03 (concentration: 0.1mM) and 1.01 ± 0.023 (concentration: 0.5mM).

For “UniProt Q8N5A5-2|Q8N5A5 and related entries”, the NP40-soluble protein abundance was 1.02 ± 0.1 (concentration: 0.1mM) and 1.09 ± 0.12 (concentration: 0.5mM).

As for UniProt Q8NBZ7 and related entries, the NP40-soluble protein abundance reads like this: (concentration: 0.1mM) 1.01 ± 0.035; (concentration: 0.5mM) 0.991 ± 0.07.

Turning to UniProt Q8N3X6 and related entries, the NP40-soluble protein abundance came out at 0.877 ± 0.1 (concentration: 0.1mM) and 0.925 ± 0.039 (concentration: 0.5mM).

On to UniProt Q8NDI1-2|Q8NDI1-3|Q8NDI1, for which the NP40-soluble protein abundance runs as follows: (concentration: 0.1mM) 0.981 ± 0.022; (concentration: 0.5mM) 0.963 ± 0.046.

CNNM3 (UniProt Q8NE01): the NP40-soluble protein abundance worked out at 1.08 ± 0.058 (concentration: 0.1mM) and 1.02 ± 0.057 (concentration: 0.5mM).

Consider PSD4 (UniProt Q8NDX1), for which the NP40-soluble protein abundance turned out to be 1 ± 0.024 (concentration: 0.1mM) and 1.07 ± 0.011 (concentration: 0.5mM).

For UniProt Q8IXB1 and related entries, the NP40-soluble protein abundance by setting is: (concentration: 0.1mM) 1.03 ± 0.092; (concentration: 0.5mM) 0.998 ± 0.066.

For UniProt Q8N108 and related entries, the NP40-soluble protein abundance runs as follows: (concentration: 0.1mM) 0.964 ± 0.018; (concentration: 0.5mM) 0.976 ± 0.032.

In the case of TXNDC5 (UniProt Q8NBS9), the NP40-soluble protein abundance (concentration: 0.1mM) turned out to be 0.984 ± 0.047 and the NP40-soluble protein abundance (concentration: 0.5mM) worked out at 1 ± 0.037.

As to MOSPD2 (UniProt Q8NHP6), the NP40-soluble protein abundance is, setting by setting: (concentration: 0.1mM) 1.06 ± 0.071; (concentration: 0.5mM) 1.04 ± 0.07.

Take SHCBP1 (UniProt Q8NEM2): the NP40-soluble protein abundance stood at 1.06 ± 0.081 (concentration: 0.1mM) and 1.01 ± 0.056 (concentration: 0.5mM).

Consider UniProt Q8NBU5, for which the NP40-soluble protein abundance (concentration: 0.1mM) was 1.03 ± 0.055 and the NP40-soluble protein abundance (concentration: 0.5mM) came to 1.06 ± 0.073.

In the case of PLA2G15 (UniProt Q8NCC3), the NP40-soluble protein abundance was determined as 0.971 ± 0.038 (concentration: 0.1mM) and 0.896 ± 0.059 (concentration: 0.5mM).

In the case of UBR7 (UniProt Q8N806), the NP40-soluble protein abundance stood at 1.02 ± 0.044 (concentration: 0.1mM) and 1 ± 0.054 (concentration: 0.5mM).

As to UniProt Q8TAC1 and related entries, the NP40-soluble protein abundance (concentration: 0.1mM) was 1.05 ± 0.096 and the NP40-soluble protein abundance (concentration: 0.5mM) stood at 1.08 ± 0.025.

GALNT12 (UniProt Q8IXK2): the NP40-soluble protein abundance is 1.1 ± 0.051 (concentration: 0.1mM) and 1.08 ± 0.079 (concentration: 0.5mM).

Consider UniProt Q8TB72 and related entries, for which the NP40-soluble protein abundance reads like this: (concentration: 0.1mM) 0.947 ± 0.043; (concentration: 0.5mM) 0.94 ± 0.042.

As to UniProt Q8NBL1, the NP40-soluble protein abundance (concentration: 0.1mM) was 1.01 ± 0.048 and the NP40-soluble protein abundance (concentration: 0.5mM) amounted to 1.04 ± 0.077.

Take USP38 (UniProt Q8NB14): the NP40-soluble protein abundance (concentration: 0.1mM) came out at 1.08 ± 0.04 and the NP40-soluble protein abundance (concentration: 0.5mM) came out at 1.05 ± 0.089.

In the case of UniProt Q8NEZ2 and related entries, the NP40-soluble protein abundance (concentration: 0.1mM) amounted to 0.922 ± 0.023 and the NP40-soluble protein abundance (concentration: 0.5mM) stood at 0.953 ± 0.061.

On to UniProt Q8N371, for which the NP40-soluble protein abundance (concentration: 0.1mM) worked out at 1.08 ± 0.064 and the NP40-soluble protein abundance (concentration: 0.5mM) came to 1.05 ± 0.031.

In the case of TOR1AIP2 (UniProt Q8NFQ8), the NP40-soluble protein abundance came to 0.937 ± 0.045 (concentration: 0.1mM) and 0.885 ± 0.044 (concentration: 0.5mM).

Turning to RFLNB (UniProt Q8N5W9), the NP40-soluble protein abundance (concentration: 0.1mM) was determined as 0.953 ± 0.051 and the NP40-soluble protein abundance (concentration: 0.5mM) was 0.942 ± 0.052.

Turning to TTC5 (UniProt Q8N0Z6), the NP40-soluble protein abundance reads like this: (concentration: 0.1mM) 0.982 ± 0.024; (concentration: 0.5mM) 0.954 ± 0.042.

For the target UniProt Q8N5Y2 and related entries, the NP40-soluble protein abundance came out at 1.03 ± 0.098 (concentration: 0.1mM) and 1.22 ± 0.052 (concentration: 0.5mM).

UniProt Q8N5U6 and related entries: the NP40-soluble protein abundance is 1.02 ± 0.063 (concentration: 0.1mM) and 1.05 ± 0.038 (concentration: 0.5mM).

PCYOX1L (UniProt Q8NBM8): the NP40-soluble protein abundance (concentration: 0.1mM) was 0.966 ± 0.056 and the NP40-soluble protein abundance (concentration: 0.5mM) stood at 0.969 ± 0.025.

On to UniProt Q8N357, for which the NP40-soluble protein abundance (concentration: 0.1mM) turned out to be 1.01 ± 0.045 and the NP40-soluble protein abundance (concentration: 0.5mM) was found to be 0.995 ± 0.042.

On to UniProt Q8NFV4 and related entries, for which the NP40-soluble protein abundance (concentration: 0.1mM) was 0.944 ± 0.063 and the NP40-soluble protein abundance (concentration: 0.5mM) turned out to be 0.95 ± 0.15.

Consider ZNRF2 (UniProt Q8NHG8), for which the NP40-soluble protein abundance was 0.906 ± 0.082 (concentration: 0.1mM) and 0.88 ± 0.099 (concentration: 0.5mM).

Regarding LIX1L (UniProt Q8IVB5), the NP40-soluble protein abundance by setting is: (concentration: 0.1mM) 0.973 ± 0.023; (concentration: 0.5mM) 0.944 ± 0.059.

Turning to NUP37 (UniProt Q8NFH4), the NP40-soluble protein abundance was found to be 1.02 ± 0.052 (concentration: 0.1mM) and 0.992 ± 0.062 (concentration: 0.5mM).

For the target HSCB (UniProt Q8IWL3), the NP40-soluble protein abundance is 1 ± 0.2 (concentration: 0.1mM) and 0.98 ± 0.22 (concentration: 0.5mM).

Regarding RBM15B (UniProt Q8NDT2), the NP40-soluble protein abundance (concentration: 0.1mM) was 1.06 ± 0.022 and the NP40-soluble protein abundance (concentration: 0.5mM) worked out at 1.16 ± 0.07.

Regarding NUP93 (UniProt Q8N1F7), the NP40-soluble protein abundance turned out to be 1.02 ± 0.057 (concentration: 0.1mM) and 1.03 ± 0.038 (concentration: 0.5mM).

On to RHOT2 (UniProt Q8IXI1), for which the NP40-soluble protein abundance (concentration: 0.1mM) worked out at 1.06 ± 0.067 and the NP40-soluble protein abundance (concentration: 0.5mM) amounted to 1.1 ± 0.1.

As to UniProt Q8TAP9, the NP40-soluble protein abundance (concentration: 0.1mM) worked out at 0.976 ± 0.064 and the NP40-soluble protein abundance (concentration: 0.5mM) turned out to be 0.894 ± 0.12.

As to UniProt Q8IX12 and related entries, the NP40-soluble protein abundance reads like this: (concentration: 0.1mM) 1 ± 0.044; (concentration: 0.5mM) 0.986 ± 0.058.

Turning to UniProt Q8NE86 and related entries, the NP40-soluble protein abundance is, setting by setting: (concentration: 0.1mM) 1.11 ± 0.082; (concentration: 0.5mM) 1.05 ± 0.057.

With PDZD8 (UniProt Q8NEN9), the NP40-soluble protein abundance (concentration: 0.1mM) is 1.03 ± 0.011 and the NP40-soluble protein abundance (concentration: 0.5mM) came to 1.01 ± 0.042.

On to UniProt Q8NHV4 and related entries, for which the NP40-soluble protein abundance was 0.964 ± 0.03 (concentration: 0.1mM) and 1 ± 0.013 (concentration: 0.5mM).

Regarding UniProt Q8IXQ5 and related entries, the NP40-soluble protein abundance amounted to 1.01 ± 0.041 (concentration: 0.1mM) and 1 ± 0.059 (concentration: 0.5mM).

UniProt Q8IWV8 and related entries: the NP40-soluble protein abundance turned out to be 1.08 ± 0.059 (concentration: 0.1mM) and 1.04 ± 0.086 (concentration: 0.5mM).

The record behind these values is the supplement of paper PMC6411743.
